Source: PubChem BioAssay AID2685 (National Center for Advancing Translational Sciences (NCATS), 2010)
Among all 320,000 compounds or so, about 2,100 (0.66%) were called active. The inconclusive results got no clear call from the source; some entries with a clear call stand among them for comparison. Calls come from the whole dose curve; as a rule, active = well fitted inhibition curve with a large enough effect in the signal ratio, with a control signal flat (not every such curve was filed as active); inconclusive = small, poorly fitted or top-dose-only effect, or effect the other way, or a change in a side signal; inactive = flat fitted curve, though single readings scatter; the % refers to the signal ratio. A potency beside an inconclusive call is a rough fit, not a confirmed value.

Experiment: qHTS Assay for Lipid Storage Modulators in Drosophila S3 Cells
Details: BODIPY lipid droplet fluorescence, 18-24 h, cells fed with added oleic acid; lipid storage change, negative = inhibition: at 46.1 µM (top of the series) unless noted
Outline: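 Drosophila S3 cells got compounds at several concentrations plus oleic acid (400 uM solution). Laser-scanning cytometry with 488 nm excitation read lipid droplets at 500-530 nm and cells at 575-640 nm. Percent activity was relative to 20 uM Triacsin C.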
% is set by controls: 0 for no effect and ±100 for the full control effect; potency is the fitted concentration of half-maximal effect.

Compound	lipid storage change, negative = inhibition	outcome	Potency
CCOC(=O)c1snc(-c2ccc(F)cc2)c1N	inconclusive: 31.3%	–	–
O=C(C1CCCO1)N1CCN(S(=O)(=O)c2ccccc2)CC1 (centres undefined)	inconclusive: -9.41%	–	–
CCOc1ccc(N=C/C=C/c2ccccc2)c(O)c1	inconclusive: -13.1%	–	–
O=C(CSc1ccccc1)NCCCN1CCOCC1	inconclusive: -10.1%	–	–
Oc1c(Cl)cc(Cl)cc1/C=N/Nc1ncc(Br)cn1	inconclusive: -9.59%	–	–
Cc1ccc(/C=C/C(=O)Oc2ccc(C#N)cc2)o1	inconclusive: 71.1%	–	–
Cc1ccc(NC(=O)NNC(=O)c2sccc2-n2cccc2)cc1	inconclusive: 11.7%	–	–
O=C(CN1C(=O)COc2ccccc21)N1CCOCC1	–	inactive [at 46.1 µM]	–
Cn1nnnc1SCC(=O)Nc1ccccn1	–	–	active: 5.8 µM
CCCOC(=O)c1ccc(NC(=O)c2ccc(Br)o2)cc1	inconclusive: 6.43%	–	–
Cc1ccc(C(=O)c2c3ccc(C(F)(F)F)cc3[n+]([O-])n2CCC(N)=O)cc1	inconclusive: -34.9%	–	–
CC(=O)N1CCc2cc(S(=O)(=O)N3c4ccccc4CC3C)ccc21 (centres undefined)	–	–	inconclusive: 1.84 µM [activator, partial curve]
Cc1[nH]c2c(C)cccc2c1CCNC(=O)C1CCCCC1C(=O)OCC(F)(F)F (centres undefined)	inconclusive: 7.01%	–	–
CC(C)N1C(=O)N(c2ccccc2)C(C)(O)CC1(C)C (centres undefined)	inactive: 7.15%	–	–
CN(C)S(=O)(=O)N1CCC(Oc2cccc(C(=O)NCCCC3CCCC3)c2)CC1	inconclusive: -148%	–	–
Cc1ccc(-c2nnc(Nc3ccc(O)cc3)c3ccccc23)cc1S(=O)(=O)NCCO	inconclusive: -77.2%	–	–
O=C(NCc1ccccc1)c1ccc(Br)cc1Br	inconclusive: -23.6%	–	–
CCS(=O)(=O)N1Cc2ccccc2CC1C(=O)N(C)CC(=O)Nc1cccc(F)c1 (centres undefined)	inconclusive	–	–
O=C(NCC(c1cccs1)N1CCOCC1)c1ccc(Cl)s1 (centres undefined)	inconclusive: 10.3%	–	–
CCCCCOc1ccc(NC(=O)CSc2cccc3cccnc23)cc1	–	–	inconclusive: 32.6 µM [falling, single point]
CNC(=O)c1cc(S(=O)(=O)N2CC(C)OC(C)C2)ccc1N1CCCCC1 (centres undefined)	–	–	inconclusive: 29.1 µM [activator, single point]
O=C(Nc1cccc([N+](=O)[O-])c1)N1CCCc2ccccc21	inconclusive: 37.1%	–	–
COc1ccc(/C=N/NS(=O)(=O)c2ccccc2)cc1OC	–	–	inconclusive: 2.91 µM [falling, single point]
O=C(Nc1ccc(F)cc1F)c1cc(-c2ccc3c(c2)OCO3)on1	–	–	inconclusive: 29.1 µM [falling, single point]

Of the compounds above, these have a Cl atom.
Compound	lipid storage change, negative = inhibition	outcome	Potency
Oc1c(Cl)cc(Cl)cc1/C=N/Nc1ncc(Br)cn1	inconclusive: -9.59%	–	–
O=C(NCC(c1cccs1)N1CCOCC1)c1ccc(Cl)s1 (centres undefined)	inconclusive: 10.3%	–	–
